From patent US8163766B2, “Beta-secretase modulators and methods of use” (Amgen Inc., priority 2005, dated 2012)
Some results were stated once for a whole list of compounds, not compound by compound.

Amino acid sequences for entries named in this document (tags omitted). Residues count along the entry.
UniProt P56817, 46-501, species assumed: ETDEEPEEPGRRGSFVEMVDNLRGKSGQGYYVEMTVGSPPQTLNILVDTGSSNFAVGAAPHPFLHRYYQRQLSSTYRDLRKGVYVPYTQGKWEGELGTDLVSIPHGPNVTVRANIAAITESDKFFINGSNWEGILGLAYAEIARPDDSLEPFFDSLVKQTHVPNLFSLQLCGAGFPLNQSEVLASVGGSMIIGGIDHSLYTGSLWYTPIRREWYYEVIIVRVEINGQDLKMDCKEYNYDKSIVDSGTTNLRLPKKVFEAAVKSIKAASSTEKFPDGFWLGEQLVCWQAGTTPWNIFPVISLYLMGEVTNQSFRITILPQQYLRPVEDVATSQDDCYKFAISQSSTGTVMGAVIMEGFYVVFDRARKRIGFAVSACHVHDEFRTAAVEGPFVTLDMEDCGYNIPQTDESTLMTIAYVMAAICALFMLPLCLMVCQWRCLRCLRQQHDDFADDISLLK

target: BACE (Homo sapiens, UniProt P56817); assay: In Vitro Enzymatic BACE FRET (Fluorescence Resonance Energy Transfer) Assay; assay type: biochemical; conditions: Enzyme 0.2 nM pre-incubated one hour with inhibitor, FRET substrate 50 nM, acetate pH 4.2

IC50, ≤ 5 µM:
CCc1ccc2c(c1)[C@@H](NC[C@@H](O)[C@H](Cc1ccccc1)NC(=O)[C@H]1CN(c3ccccn3)c3ccccc3O1)CC1(CCCC1)O2 [Example 46, (R)—N-((2S,3R)-4-((S)-6-ethyl-2,2-spirocyclopentylchroman-4-ylamino)-3-hydroxy-1-phenylbutan-2-yl)-4-(pyridin-2-yl)-3,4-dihydro-2H-benzo[b][1,4]oxazine-2-carboxamide]
CCc1ccc2c(c1)[C@@H](NC[C@@H](O)[C@H](Cc1ccccc1)NC(=O)[C@H]1CN(C)c3ccccc3O1)CC1(CCCC1)O2 [Example 47, (R)—N-((2S,3R)-4-((S)-6-ethyl-2,2-spirocyclopentylchroman-4-ylamino)-3-hydroxy-1-phenylbutan-2-yl)-4-methyl-3,4-dihydro-2H-benzo[b][1,4]oxazine-2-carboxamide]
CCc1ccc2c(c1)[C@@H](NC[C@@H](O)[C@H](Cc1ccccc1)NC(=O)C1CN(C)c3ccccc3O1)CC1(CCCC1)O2 (stereo partly drawn) [Example 48, (S)—N-((2S,3R)-4-((S)-6-ethyl-2,2-spirocyclopentylchroman-4-ylamino)-3-hydroxy-1-phenylbutan-2-yl)-4-methyl-3,4-dihydro-2H-benzo[b][1,4]oxazine-2-carboxamide]
CCc1ccc2c(c1)[C@@H](NC[C@@H](O)[C@H](Cc1ccccc1)NC(=O)C1Cc3ccccc3N(C)C1)CC1(CCCC1)O2 (stereo partly drawn) [Example 49, N-((2S,3R)-4-((S)-6-ethyl-2,2-spirocyclopentylchroman-4-ylamino)-3-hydroxy-1-phenylbutan-2-yl)-1-methyl-1,2,3,4-tetrahydroquinoline-3-carboxamide]
CCc1ccc2c(c1)[C@@H](NC[C@@H](O)[C@H](Cc1ccccc1)NC(=O)[C@H]1CN(C(C)=O)c3ccccc3O1)CC1(CCCC1)O2 [Example 50, (R)-4-acetyl-N-((2S,3R)-4-((S)-6-ethyl-2,2-spirocyclopentylchroman-4-ylamino)-3-hydroxy-1-phenylbutan-2-yl)-3,4-dihydro-2H-benzo[b][1,4]oxazine-2-carboxamide]
CCc1ccc2c(c1)[C@@H](NC[C@@H](O)[C@H](Cc1ccccc1)NC(=O)[C@H]1CN(C(=O)OC(C)(C)C)c3ccccc3O1)CC1(CCCC1)O2 [Example 52, (R)-tert-Butyl 2-(((2S,3R)-4-((S)-6-ethyl-2,2-spirocyclopentylchroman-4-ylamino)-3-hydroxy-1-phenylbutan-2-yl)carbamoyl)-2,3-dihydrobenzo[b][1,4]oxazine-4-carboxylate]
CCc1ccc2c(c1)[C@@H](NC[C@@H](O)[C@H](Cc1ccccc1)NC(=O)[C@@H]1CN(C(=O)OC(C)(C)C)c3ccccc3O1)CC1(CCCC1)O2 [Example 53, (S)-tert-butyl 2-(((2S,3R)-4-((S)-6-ethyl-2,2-spirocyclopentylchroman-4-ylamino)-3-hydroxy-1-phenylbutan-2-yl)carbamoyl)-2,3-dihydrobenzo[b][1,4]oxazine-4-carboxylate]
CCc1ccc2c(c1)[C@@H](NC[C@@H](O)[C@H](Cc1ccccc1)NC(=O)C1CNc3cc(Br)ccc3O1)CC1(CCCC1)O2 (stereo partly drawn) [Example 54, 6-bromo-N-((2S,3R)-4-((S)-6-ethyl-2,2-spirocyclopentylchroman-4-ylamino)-3-hydroxy-1-phenylbutan-2-yl)-3,4-dihydro-2H-benzo[b][1,4]oxazine-2-carboxamide]
CCc1ccc2c(c1)[C@@H](NC[C@@H](O)[C@H](Cc1ccccc1)NC(=O)c1cc(N3CCCC3=O)c(=O)n(C3CCCC3)c1)CC1(CCCC1)O2 [Example 105]
CCc1ccc2c(c1)[C@@H](NC[C@@H](O)[C@H](Cc1ccccc1)NC(=O)c1cc(-c3ccccn3)c(=O)n3c1CCC3)CC1(CCCC1)O2 [Example 106, N-((2S,3R)-4-((S)-6-Ethyl-2,2-spirocyclopentylchroman-4-ylamino)3-hydroxy-1-phenylbutan-2-yl)-5-oxo-6-(pyridin-2-yl)-1,2,3,5-tetrahydroindolizine-8-carboxamide]
CCc1ccc2c(c1)[C@@H](NC[C@@H](O)[C@H](Cc1ccccc1)NC(=O)c1cc(-c3ccccc3F)c(=O)n3c1CCC3)CC1(CCCC1)O2 [Example 107, N-((2S,3R)-4-((8)-6-Ethyl-2,2-spirocyclopentylchroman-4-ylamino)3-hydroxy-1-phenylbutan-2-yl)-6-(2-fluorophenyl)-5-oxo-1,2,3,5-tetrahydroindolizine-8-carboxamide]
CCc1ccc2c(c1)[C@@H](NC[C@@H](O)[C@H](Cc1ccccc1)NC(=O)c1cc(-c3cccc(F)c3)c(=O)n3c1CCC3)CC1(CCCC1)O2 [Example 108, N-((2S,3R)-4-((8)-6-Ethyl-2,2-spirocyclopentylchroman-4-ylamino)3-hydroxy-1-phenylbutan-2-yl)-6-(3-fluorophenyl)-5-oxo-1,2,3,5-tetrahydroindolizine-8-carboxamide]
CC(C)(C)Cn1cc(C(=O)N[C@@H](Cc2ccccc2)[C@H](O)CN[C@H]2CC3(CCCC3)Oc3ccc(F)cc32)ccc1=O [Example 109, N-((2S,3R)-4-((S)-6-fluoro-2,2-spirocyclopentylchroman-4-ylamino)-3-hydroxy-1-phenylbutan-2-yl)-1-neopentyl-6-oxo-1,6-dihydropyridine-3-carboxamide]
O=C(N[C@@H](Cc1ccccc1)[C@H](O)CN[C@H]1CC2(CCCC2)Oc2ccc(F)cc21)c1cc(N2CCCC2=O)c(=O)n(C2CCCC2)c1 [Example 110]
O=C(N[C@@H](Cc1ccccc1)[C@H](O)CN[C@H]1CC2(CCCC2)Oc2c(F)cc(F)cc21)c1cc(N2CCCC2=O)c(=O)n(C2CCCC2)c1 [Example 111]
O=C(N[C@@H](Cc1ccccc1)[C@H](O)CN[C@H]1CC2(CCCC2)Oc2ccc(F)cc21)c1ccc(=O)n(C2CCCC2)c1 [Example 112]
O=C(N[C@@H](Cc1ccccc1)[C@H](O)CN[C@H]1CC2(CCCC2)Oc2c(F)cc(F)cc21)c1ccc(=O)n(C2CCCC2)c1 [Example 113]
CCc1ccc2c(c1)[C@@H](NC[C@@H](O)[C@H](Cc1ccccc1)NC(=O)c1ccc(=O)n(CC(C)(C)C)c1)CC1(CCCC1)O2 [Example 115, N-((2S,3R)-4-((S)-6-ethyl-2,2-spirocyclopentylchroman-4-ylamino)-3-hydroxy-1-phenylbutan-2-yl)-1-neopentyl-6-oxo-1,6-dihydropyridine-3-carboxamide]
CCc1ccc2c(c1)[C@@H](NC[C@@H](O)[C@H](Cc1ccccc1)NC(=O)c1cc(N3CCCC3=O)c(=O)n(C3CCCC3)c1)CC1(CCC1)O2 [Example 116]
CCc1ccc2c(c1)[C@@H](NC[C@@H](O)[C@H](Cc1ccccc1)NC(=O)c1ccc(=O)n(C3CCCC3)c1)CC1(CCC1)O2 [Example 117]
CCc1ccc2c(c1)[C@@H](NC[C@@H](O)[C@H](Cc1ccccc1)NC(=O)c1ccc(=O)n(CC(C)C)c1)CC1(CCC1)O2 [Example 118]
CCc1ccc2c(c1)[C@@H](NC[C@@H](O)[C@H](Cc1ccccc1)NC(=O)c1ccc(=O)n(CC(F)(F)F)c1)CC1(CCC1)O2 [Example 119]
CCc1ccc2c(c1)[C@@H](NC[C@@H](O)[C@H](Cc1ccccc1)NC(=O)c1ccc(=O)n(-c3ccccc3)c1)CC1(CCC1)O2 [Example 120]
